Assay results published in article PMC7819943, “Rice protein-binding microarrays: a tool to detect cis-acting elements near promoter regions in rice”.
The other results are listed elsewhere or left out.

The chains behind the UniProt entries cited, without tags or fusion partners.
UniProt Q0JBA9, entry or part of it: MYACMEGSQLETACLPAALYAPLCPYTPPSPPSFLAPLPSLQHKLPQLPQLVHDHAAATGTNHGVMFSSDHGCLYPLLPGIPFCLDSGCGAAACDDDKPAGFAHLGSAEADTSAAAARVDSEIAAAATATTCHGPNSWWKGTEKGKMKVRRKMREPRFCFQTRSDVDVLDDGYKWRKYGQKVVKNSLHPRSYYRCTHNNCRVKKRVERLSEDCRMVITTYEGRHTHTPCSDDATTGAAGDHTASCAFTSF

The sequences below were run against OsWRKY34 (Oryza sativa, UniProt Q0JBA9 1-250) (assay: protein-binding microarray (RPBM); PBS, 2% BSA, 51.3 ng/ul salmon testes DNA, 50 uM zinc acetate, 200 nM TF, 25 C, 1 h; high values mean tight binding). Details: protein: recombinant; tags: N-terminal polyhistidine and DsRed monomer fusion (pET32a); label: CyDye5-dUTP incorporated in the synthesized complementary strand; 3' TTTTT single-stranded linker to array surface; dsDNA, one strand shown.
Summary of the method: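 Binding signal here means per-feature fluorescence intensity in arbitrary units. The values were read on an Axon 4000B scanner after a custom Agilent array, double-stranded by primer extension with Cy5-dUTP, was incubated with 200 nM protein at 25 °C for 1 h in PBS with 2% BSA, salmon testes DNA and 50 µM zinc acetate, then washed. The proteins were transcription factors with an N-terminal polyhistidine tag and DsRed, expressed in E. coli BL21-CodonPlus and purified on Ni–NTA.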

Row | Sequence | binding signal
1 | TTCTTCTCTCTCTCTTGTCACTCATCATCATCACTCTTCACGGAGTCACCTAGTGCAG | 10900 fluorescence intensity (a.u.)
2 | TTTGGTTGAATCTTATCCTAAACGTTGATTTTTGTTTTTACGGAGTCACCTAGTGCAG | 9320 fluorescence intensity (a.u.)
3 | CTGTGACTCTCACGCGTTGGTCTTTTCGTCTCGGCCTCGTCGGAGTCACCTAGTGCAG | 9950 fluorescence intensity (a.u.)
4 | ACCATGACTCCTCTCTCTGAACGGCTGAACCTTATTGGCACGGAGTCACCTAGTGCAG | 8200 fluorescence intensity (a.u.)
5 | CGGCGAAATCCGCCGACCTTGCGCCTCTGTCCGCCTCCGCCGGAGTCACCTAGTGCAG | 8120 fluorescence intensity (a.u.)
6 | TGCCCTCTTTCTCTACAACTTGCAAGGCTCCTGTCGGGGTCGGAGTCACCTAGTGCAG | 8750 fluorescence intensity (a.u.)
7 | TACATCCCTCCACGTCATCGATCCGCGCCGCGTGCCTTCCCGGAGTCACCTAGTGCAG | 9950 fluorescence intensity (a.u.)
8 | TCGCACTGTTTCACCGGTCGCCCAATCGCCACCGCGCCCGCGGAGTCACCTAGTGCAG | 8060 fluorescence intensity (a.u.)
9 | GATCATTTTGCCAGTCTGTCTGGTGTCTGAACTTGTAAGCCGGAGTCACCTAGTGCAG | 10800 fluorescence intensity (a.u.)
10 | CATAATTCAGACTACCCCTGATTTTTTTATTTTAGCCTACCGGAGTCACCTAGTGCAG | 8320 fluorescence intensity (a.u.)
11 | AGCAGCCAGACGATTCTCTTCAGTTTCTTACATCTTCCAACGGAGTCACCTAGTGCAG | 9000 fluorescence intensity (a.u.)
12 | CACCAATACCGGTCCATCTCGCTTTTCTCAATCTCCATAGCGGAGTCACCTAGTGCAG | 11800 fluorescence intensity (a.u.)
13 | TGGGACTAATTTGTTGTCGTAGATCTTCATGTTTTTTCTACGGAGTCACCTAGTGCAG | 10700 fluorescence intensity (a.u.)
14 | TGTCGTCACCGTGGTCTCTACCTGCTGCTCCACTCCCACCCGGAGTCACCTAGTGCAG | 10400 fluorescence intensity (a.u.)
15 | GGGTTTATTTGGGCGGTGGGGAGAAATCCGTGGTTCGGTGCGGAGTCACCTAGTGCAG | 15200 fluorescence intensity (a.u.)
16 | CTTTTTTTTGTTAGCAGCCTCTTTATCCTGTTCTTTGAGGCGGAGTCACCTAGTGCAG | 11000 fluorescence intensity (a.u.)
17 | CAAATTTTGGTTTTCTTGGTTGCTTTTTGAGAACATGAGCCGGAGTCACCTAGTGCAG | 8300 fluorescence intensity (a.u.)
18 | GTCGCCGCCTCCTCCTCTCCATCTCCGCTGCTATTATTGCCGGAGTCACCTAGTGCAG | 12900 fluorescence intensity (a.u.)
19 | GTCTCTTCTCTTCTCTCGTGCAAGGCCGGCAGTGTACCGTCGGAGTCACCTAGTGCAG | 9270 fluorescence intensity (a.u.)
20 | AACAGGGAGCGCGCTTTGCCAGATCTACCCCGTTCCATTCCGGAGTCACCTAGTGCAG | 8040 fluorescence intensity (a.u.)
21 | TCAGTTTTTGGCTCCAACAATAGTGTTGGTTTGATTTTTACGGAGTCACCTAGTGCAG | 9210 fluorescence intensity (a.u.)

Reformatted: entries from further up
Row	Sequence	binding signal
7	TACATCCCTCCACGTCATCGATCCGCGCCGCGTGCCTTCCCGGAGTCACCTAGTGCAG	9950 fluorescence intensity (a.u.)
8	TCGCACTGTTTCACCGGTCGCCCAATCGCCACCGCGCCCGCGGAGTCACCTAGTGCAG	8060 fluorescence intensity (a.u.)

Following part.

Row | Sequence | binding signal
22 | CCACGCCAATTAGCATCCCACGTTTCGCCTTTGATTGTGGCGGAGTCACCTAGTGCAG | 8090 fluorescence intensity (a.u.)
23 | CCGCATCCACAGTTCTTTTCCTTTTTGTGAGTTTCTTTTTCGGAGTCACCTAGTGCAG | 11100 fluorescence intensity (a.u.)
24 | CAATTTTACCTCGGACTTATTATCTGCTCTGCGAGATTAGCGGAGTCACCTAGTGCAG | 8130 fluorescence intensity (a.u.)
25 | CTCTCCTCTCTTCTCGAGCGCGGCGGCGGTGGTGGGGAGGCGGAGTCACCTAGTGCAG | 14300 fluorescence intensity (a.u.)
26 | TGTTCTTCCCTTTTTCTTTCTTGGAATTCGATATTTCGATCGGAGTCACCTAGTGCAG | 9390 fluorescence intensity (a.u.)
27 | AACGAAAGATTGAACCCCTGACCGGACCACTGCTACTTTGCGGAGTCACCTAGTGCAG | 8520 fluorescence intensity (a.u.)
28 | TACAAGCCCGTTGCCATCTCTACTCCGGCCTCCTAGTCCTCGGAGTCACCTAGTGCAG | 9760 fluorescence intensity (a.u.)
29 | GCTACACCGCACCCACCACAGCCAGACTTGAACTTGTTGACGGAGTCACCTAGTGCAG | 8950 fluorescence intensity (a.u.)
30 | CGTAACCTTGGCCTATATTTGATATTTCTCTCCGGCGATACGGAGTCACCTAGTGCAG | 9700 fluorescence intensity (a.u.)
31 | TGGTCAAGCCCTTTTTGATCTTTTTTTTTCTGTCTCATGCCGGAGTCACCTAGTGCAG | 9610 fluorescence intensity (a.u.)
32 | TCACCCTTCACCTGCATGATCCTCTCTTTTTCAATCCCTCCGGAGTCACCTAGTGCAG | 9340 fluorescence intensity (a.u.)
33 | TGTAATGCCATGACTCTTTCAGTAATTCCTGCAGCTTGTCCGGAGTCACCTAGTGCAG | 9810 fluorescence intensity (a.u.)
34 | TCCCGACCACCGCCGCCGCCGCCGCCCACCTCCTCCTCCGCGGAGTCACCTAGTGCAG | 9990 fluorescence intensity (a.u.)
35 | ATACAACTTTTCAGTCACATCGTACCAATTTCAATCCAAACGGAGTCACCTAGTGCAG | 9720 fluorescence intensity (a.u.)
36 | ATCACTTCAGCTTGGCCGCGTTCTTTTCAGTGGTTGGGTTCGGAGTCACCTAGTGCAG | 11400 fluorescence intensity (a.u.)
37 | GCCATCACGCTCCCGCTCTACCGCAACCTCCCGCCCGTCCCGGAGTCACCTAGTGCAG | 11000 fluorescence intensity (a.u.)
38 | AGAACACAAATAAAGCTTTATTTATTCTATTGTTTTGTTTCGGAGTCACCTAGTGCAG | 8370 fluorescence intensity (a.u.)
39 | GCTCTTAGCTGCTGTTCTATGCAATTGTTCAATATTTTTTCGGAGTCACCTAGTGCAG | 8520 fluorescence intensity (a.u.)
40 | GATCCCAACGCCGACCCTACACGTCATCCCTACGCCTCGTCGGAGTCACCTAGTGCAG | 10700 fluorescence intensity (a.u.)
41 | ATCTTCTTATGTTCTTTGTCTGTGCAACTTTTGATAGAAACGGAGTCACCTAGTGCAG | 13500 fluorescence intensity (a.u.)
42 | GTCAATCCATCCACCGCTGGTTAACAGTGCGCATGAACATCGGAGTCACCTAGTGCAG | 9720 fluorescence intensity (a.u.)
